These are yes or no findings as the source states them, for the method shown. In cells and extracts the contact can be indirect. Here binding means that the protein was enriched with, or labelled near, the bait; the list need not be complete.

The target in this test is PfRNF1-GFP-BirA fusion protein (P. falciparum) (UniProt O97260). The experiment in a line: proximity labelling.

As for Puf1 (from UniProt Q8I3S3), the binding result is “binds”.

As to PfZNF4 (from UniProt Q8II18), the binding result is “binds”.

Regarding PABP1 (from UniProt Q8I5H4), the binding result is “binds”.

Take RPT6 (from UniProt Q8I4U5): the binding entry is on record as “binds”.

Turning to RPN2 (from UniProt Q8IKH3), the binding result was “binds”.

For the substance RPN11 (from UniProt Q8ID28), the binding result is “binds”.

As to “zinc finger protein PF3D7_0522900 (from UniProt Q8I3N4 1-1552)”, the binding result was “binds”.

In the case of CAF1 (from UniProt C0H4T9), the binding result was “binds”.

Turning to NOT1 (from UniProt Q8IIW4), the binding result is recorded as “binds”.

In the case of NOT2 (from UniProt Q8II77), the binding result was “binds”.

As to CAF40 (from UniProt Q8I427), the binding entry is listed as “binds”.

As for “zinc finger protein PF3D7_1220000 (from UniProt Q8I5L2)”, the binding entry was “binds”.

As to DOZI (from UniProt O97285), the binding entry is recorded as “binds”.

Consider RPT5 (from UniProt Q8II60), for which the binding entry is “binds”.

As to NOT1-G (from UniProt Q8ILS4), the binding result is “binds”.

Take CITH (from UniProt Q8IK89): the binding entry is “binds”.

Take “zinc finger protein PF3D7_0927200 (from UniProt C0H566 1-1627)”: the binding result is recorded as “binds”.

Turning to “zinc finger protein PF3D7_0602000 (from UniProt C6KSM0 1-1437)”, the binding entry was “binds”.

Regarding “zinc finger protein PF3D7_1205500 (from UniProt Q8I5Z0)”, the binding result is reported as “binds”.

For the substance RPT1 (from UniProt Q8IEK3), the binding result is reported as “binds”.

Turning to RPT3 (from UniProt Q8I1V1), the binding result is “binds”.
